Measured values as given in US4933104A, “Anthraquinone derivative as a dichroic dye for a liquid-crystal material, liquid-crystal material and an electrooptical device” (priority 1986, dated 1990).

Assay: intensity of colour of symbols N in an electrooptical device (guest-host effect)
Conditions: Table 7; dichroic working body 20 μm thick

Structure (SMILES)	Intensity N = D1 - D11, known derivatives
CCCCCCCCc1ccc(-c2ccc(C(=O)Nc3ccc(NCCCC)c4c3C(=O)c3ccccc3C4=O)cc2)cc1 [No. 1, Table 6, reference compound]	0.16
CCCCCc1ccc(-c2ccc(C(=O)Nc3ccc(NCCCC)c4c3C(=O)c3ccccc3C4=O)cc2)cc1 [No. 2, Table 6, reference compound]	0.18
CCCCc1ccc(C(=O)Nc2ccc(NC(=O)c3ccc(CCCC)cc3)c3c2C(=O)c2ccccc2C3=O)cc1 [No. 3, Table 6, reference compound]	0.23
CCCCCCc1ccc(C(=O)Nc2ccc(NC(=O)c3ccc(CCCCCC)cc3)c3c2C(=O)c2ccccc2C3=O)cc1 [No. 4, Table 6, reference compound]	0.25
CCCCCCc1ccc(C(=O)Nc2ccc(OC(=O)c3ccc(CCCCCC)cc3)c3c2C(=O)c2c(NC(=O)c4ccc(CCCCCC)cc4)ccc(OC(=O)c4ccc(CCCCCC)cc4)c2C3=O)cc1 [No. 5, Table 6, reference compound]	0.19
CCCCc1ccc(C(=O)Nc2ccc(OC(=O)c3ccc(CCCC)cc3)c3c2C(=O)c2c(NC(=O)c4ccc(CCCC)cc4)ccc(OC(=O)c4ccc(CCCC)cc4)c2C3=O)cc1 [No. 6, Table 6]	0.21
CCCCc1ccc(C(=O)Nc2ccc(O)c3c2C(=O)c2c(NC(=O)c4ccc(CCCC)cc4)ccc(O)c2C3=O)cc1 [No. 7, Table 6]	0.27
CCCCc1ccc(C(=O)Nc2ccc(O)c3c2C(=O)c2c(NC(=O)c4ccc(CCCC)cc4)ccc(OC(=O)c4ccc(CCCC)cc4)c2C3=O)cc1 [No. 8, Table 6, reference compound]	0.27
CCCCCCc1ccc(C(=O)Nc2ccc(O)c3c2C(=O)c2c(NC(=O)c4ccc(CCCCCC)cc4)ccc(O)c2C3=O)cc1 [No. 9, Table 6]	0.26
CCCCCC1CCC(c2ccc(C(=O)Nc3ccc(O)c4c3C(=O)c3c(NC(=O)c5ccc(C6CCC(CCCCC)CC6)cc5)ccc(OC(=O)c5ccc(C6CCC(CCCCC)CC6)cc5)c3C4=O)cc2)CC1 (stereo not shown) [No. 10, Table 6, reference compound]	0.26

Where no unit stands, none is given here, and values compare only within one read-out.
